Our source for the EC50 values is ChEMBL document CHEMBL5550189, “Discovery of GS-7682, a Novel 4'-Cyano-Modified C-Nucleoside Prodrug with Broad Activity against Pneumo- and Picornaviruses and Efficacy in RSV-Infected African Green Monkeys” (J Med Chem, 2024).

For the test, the system named is SARS-CoV-2. In words: Anti-viral activity against SARS-CoV-2 infected in human A549 cells expressing hACE2 by firefly reporter assay. The settings on record: Severe acute respiratory syndrome coronavirus 2, A549. Format: functional, organism-based. For orientation: A reporter such as luciferase makes a cellular process visible.

As to `CCC(CC)COC(=O)[C@H](C)N[P@](=O)(OC[C@H]1O[C@@](C#N)(c2ccc3c(N)ncnn23)[C@H](O)[C@@H]1O)Oc1ccccc1` [REMDESIVIR], a half-maximal effect (EC50) was put at 80 nM.
